The values below come from patent publication US20050288351A1, “Azaspiro compounds for the treatment of pain” (Schwarz Pharma AG, priority 2002, published 2005).

This test concerns NMRl mice. Kind of test: formalin test, in-vivo test for determining the analgesic efficacy. The settings on record: 8 mg/kg, average of 9 test series. The method, then: FIG. 1 and Table 1 show the reaction of test animals (10 mice each) 20-45 minutes after the intraperitoneal administration of selected compounds. In each case, the maximum dosage selected for the concentration of azaspiro compounds was held, by a factor of about 2, below the toxic dose previously determined in the IRWIN test (Irwin, Psychopharmacologia 13 (1968) 222).
For the purpose of this patent application, the term “mean deviation of the pain reaction” refers to a relative deviation that is obtained when the average time of pain reaction of 10 animals treated with active agents in a test series as described in implementation Example #8 is compared, over a defined period (20-25′, 30-35′ or 40-45′ after formalin injection), with the average time of the pain reaction of 10 control animals treated with an excipient. A reduction in the pain reaction is expressed in negative percentage figures.
The test was conducted as described by Wheeler-Aceto (Psychopharmacology 104, 1991, 35).
NMRl mice having a weight of 20-25 g were kept under controlled conditions (22±2° C., 40-70% relative humidity). 25 μl of a 5% […] solution was injected in the hind leg and the leg-licking frequency was then clocked for 5 minutes each at defined intervals (20, 30, 40 minutes).
First, the highest possible non-toxic concentration of the respective test substances that could be used was determined by an IRWIN test (Irwin, Psychopharmacologia 13, 1968, 222).
The test substances were dissolved in a physiological salt solution with 0.5% sodium carboxymethyl cellulose and were each measured in 1-3 dosages that had been applied intraperitoneally 10 minutes before administration of formalin. The comparative reference value was provided by a control excipient (10 ml/kg).
The test was performed in blind fashion on 10 mice per test series. The evaluation was based on a comparison of the treated animals with control excipients at three different times. […] The statistical significance was determined using the Mann-Whitney U-test.

As to `CN1CC[C@]23c4c5ccc(O)c4O[C@H]2[C@@H](O)C=C[C@H]3[C@H]1C5` [Morphine, reference compound], where the note is “20-25′ after formalin”, the “Mean deviation of the pain reaction compared to control (%) (n minutes after administration of formalin) 20-25′” value is −87%. Further, the “Mean deviation of the pain reaction compared to control (%) (n minutes after administration of formalin) 30-35′” value (30-35′ after formalin) was −95%. Also, for the setting “40-45′ after formalin”, the “Mean deviation of the pain reaction compared to control (%) (n minutes after administration of formalin) 40-45′” value is −88%.
